Assay results published in the supplement of paper PMC7666118.
This is one part of the list.

By UniProt entry, the sequences of proteins in these tests, tags left out. Where a name states a change or a piece, a line headed by the entry shows the natural chain unless it says otherwise.
UniProt Q9GZU7: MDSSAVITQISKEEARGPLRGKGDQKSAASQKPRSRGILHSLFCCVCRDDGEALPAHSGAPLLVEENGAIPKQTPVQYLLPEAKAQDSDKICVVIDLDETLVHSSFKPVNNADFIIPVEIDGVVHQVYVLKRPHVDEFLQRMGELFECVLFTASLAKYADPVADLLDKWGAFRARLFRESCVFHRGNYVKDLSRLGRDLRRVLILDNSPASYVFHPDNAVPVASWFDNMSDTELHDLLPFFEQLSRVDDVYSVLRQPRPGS
UniProt Q6UW02: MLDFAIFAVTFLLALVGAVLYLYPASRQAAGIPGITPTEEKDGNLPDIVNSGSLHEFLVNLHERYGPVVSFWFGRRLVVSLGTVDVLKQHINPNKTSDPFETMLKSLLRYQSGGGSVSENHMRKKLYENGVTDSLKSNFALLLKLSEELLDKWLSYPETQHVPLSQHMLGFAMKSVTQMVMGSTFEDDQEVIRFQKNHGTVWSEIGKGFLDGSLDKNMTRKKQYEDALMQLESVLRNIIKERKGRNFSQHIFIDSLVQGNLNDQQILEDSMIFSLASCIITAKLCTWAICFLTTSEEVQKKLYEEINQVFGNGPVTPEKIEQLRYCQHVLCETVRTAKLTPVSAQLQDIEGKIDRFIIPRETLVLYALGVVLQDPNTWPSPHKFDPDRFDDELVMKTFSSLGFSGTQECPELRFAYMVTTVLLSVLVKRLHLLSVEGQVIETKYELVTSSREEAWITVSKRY
UniProt P99999: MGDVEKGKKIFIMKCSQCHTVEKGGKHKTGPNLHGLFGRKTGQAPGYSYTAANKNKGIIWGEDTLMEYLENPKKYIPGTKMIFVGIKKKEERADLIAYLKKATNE
UniProt Q14019: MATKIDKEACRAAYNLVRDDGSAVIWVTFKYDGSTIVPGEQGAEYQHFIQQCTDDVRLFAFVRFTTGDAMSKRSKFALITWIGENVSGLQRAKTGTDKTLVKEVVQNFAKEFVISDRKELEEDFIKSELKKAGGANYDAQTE
UniProt O75907: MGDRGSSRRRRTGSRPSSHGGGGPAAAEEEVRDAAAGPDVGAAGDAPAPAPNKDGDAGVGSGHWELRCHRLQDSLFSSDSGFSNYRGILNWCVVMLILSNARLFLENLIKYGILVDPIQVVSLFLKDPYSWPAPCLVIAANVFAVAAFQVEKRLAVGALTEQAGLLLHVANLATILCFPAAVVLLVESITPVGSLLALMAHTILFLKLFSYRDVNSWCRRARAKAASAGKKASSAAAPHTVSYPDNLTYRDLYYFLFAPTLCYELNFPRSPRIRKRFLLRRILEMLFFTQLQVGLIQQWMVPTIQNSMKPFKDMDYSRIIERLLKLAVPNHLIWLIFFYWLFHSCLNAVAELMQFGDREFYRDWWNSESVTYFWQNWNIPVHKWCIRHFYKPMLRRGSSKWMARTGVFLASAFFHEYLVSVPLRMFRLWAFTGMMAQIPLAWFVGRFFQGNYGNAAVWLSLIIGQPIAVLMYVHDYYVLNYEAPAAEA
UniProt O43583: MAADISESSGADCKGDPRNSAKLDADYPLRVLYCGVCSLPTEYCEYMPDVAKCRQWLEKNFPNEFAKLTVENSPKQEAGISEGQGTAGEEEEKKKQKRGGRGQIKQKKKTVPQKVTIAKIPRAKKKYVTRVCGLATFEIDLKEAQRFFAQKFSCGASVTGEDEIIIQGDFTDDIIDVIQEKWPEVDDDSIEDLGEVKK
UniProt O00148, whole entry: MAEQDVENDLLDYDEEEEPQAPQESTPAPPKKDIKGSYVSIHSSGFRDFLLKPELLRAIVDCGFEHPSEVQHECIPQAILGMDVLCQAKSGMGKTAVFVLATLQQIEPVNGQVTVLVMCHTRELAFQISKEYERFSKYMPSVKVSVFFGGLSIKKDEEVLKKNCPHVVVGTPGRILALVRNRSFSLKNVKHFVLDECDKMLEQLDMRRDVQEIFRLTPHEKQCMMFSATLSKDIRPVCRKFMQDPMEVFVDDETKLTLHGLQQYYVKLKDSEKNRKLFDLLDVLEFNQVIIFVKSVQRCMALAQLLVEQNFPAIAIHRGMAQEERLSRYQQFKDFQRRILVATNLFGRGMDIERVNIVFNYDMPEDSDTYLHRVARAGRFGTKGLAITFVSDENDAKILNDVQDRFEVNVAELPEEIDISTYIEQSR
UniProt Q13616, whole entry: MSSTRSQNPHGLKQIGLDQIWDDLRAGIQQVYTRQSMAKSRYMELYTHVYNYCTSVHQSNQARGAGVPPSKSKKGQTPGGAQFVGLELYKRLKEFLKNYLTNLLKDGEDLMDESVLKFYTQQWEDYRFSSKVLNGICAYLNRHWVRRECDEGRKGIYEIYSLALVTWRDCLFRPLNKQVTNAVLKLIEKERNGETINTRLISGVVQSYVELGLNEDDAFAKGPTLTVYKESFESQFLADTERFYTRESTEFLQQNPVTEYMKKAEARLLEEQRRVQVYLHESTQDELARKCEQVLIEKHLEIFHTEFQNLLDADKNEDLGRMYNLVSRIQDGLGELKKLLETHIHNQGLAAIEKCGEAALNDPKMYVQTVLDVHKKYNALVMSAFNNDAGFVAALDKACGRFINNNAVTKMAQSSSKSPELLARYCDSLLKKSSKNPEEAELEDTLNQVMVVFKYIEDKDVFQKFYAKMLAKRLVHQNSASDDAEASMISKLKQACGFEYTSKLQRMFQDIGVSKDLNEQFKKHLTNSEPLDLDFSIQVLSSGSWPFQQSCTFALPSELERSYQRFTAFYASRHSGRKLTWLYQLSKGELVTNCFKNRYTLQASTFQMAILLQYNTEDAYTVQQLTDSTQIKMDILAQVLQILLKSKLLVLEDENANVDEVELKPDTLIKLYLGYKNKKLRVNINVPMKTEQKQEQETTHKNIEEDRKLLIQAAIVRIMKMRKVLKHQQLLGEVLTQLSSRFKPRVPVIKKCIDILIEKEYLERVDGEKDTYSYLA
UniProt Q9Y2R4: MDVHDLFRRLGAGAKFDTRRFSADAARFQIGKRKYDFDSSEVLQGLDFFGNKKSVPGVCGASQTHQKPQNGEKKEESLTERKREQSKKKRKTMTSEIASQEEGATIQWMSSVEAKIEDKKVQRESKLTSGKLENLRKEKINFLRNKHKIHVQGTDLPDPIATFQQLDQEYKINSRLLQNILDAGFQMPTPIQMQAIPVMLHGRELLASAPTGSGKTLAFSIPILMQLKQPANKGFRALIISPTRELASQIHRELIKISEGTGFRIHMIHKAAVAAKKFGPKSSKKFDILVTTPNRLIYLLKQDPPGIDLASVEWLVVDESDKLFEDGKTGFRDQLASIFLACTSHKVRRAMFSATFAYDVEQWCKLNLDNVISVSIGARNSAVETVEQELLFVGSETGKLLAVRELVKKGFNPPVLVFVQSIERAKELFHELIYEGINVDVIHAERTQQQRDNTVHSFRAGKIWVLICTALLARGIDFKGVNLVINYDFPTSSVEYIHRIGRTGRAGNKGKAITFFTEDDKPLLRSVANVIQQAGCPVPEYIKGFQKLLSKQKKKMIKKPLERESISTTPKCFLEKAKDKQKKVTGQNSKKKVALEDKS
UniProt Q16850: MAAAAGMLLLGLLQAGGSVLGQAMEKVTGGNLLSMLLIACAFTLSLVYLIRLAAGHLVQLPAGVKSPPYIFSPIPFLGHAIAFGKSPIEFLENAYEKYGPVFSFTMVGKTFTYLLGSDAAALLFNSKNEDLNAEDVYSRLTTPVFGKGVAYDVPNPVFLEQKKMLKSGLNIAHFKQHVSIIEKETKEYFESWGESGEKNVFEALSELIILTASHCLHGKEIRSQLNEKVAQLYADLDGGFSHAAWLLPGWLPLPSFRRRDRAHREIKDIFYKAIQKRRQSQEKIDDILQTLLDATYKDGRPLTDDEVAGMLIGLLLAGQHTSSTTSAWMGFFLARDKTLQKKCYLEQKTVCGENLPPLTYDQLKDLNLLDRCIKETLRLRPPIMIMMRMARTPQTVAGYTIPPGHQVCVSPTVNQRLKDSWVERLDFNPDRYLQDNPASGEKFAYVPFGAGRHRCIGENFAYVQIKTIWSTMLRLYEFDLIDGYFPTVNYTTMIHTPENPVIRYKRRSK
UniProt P00156: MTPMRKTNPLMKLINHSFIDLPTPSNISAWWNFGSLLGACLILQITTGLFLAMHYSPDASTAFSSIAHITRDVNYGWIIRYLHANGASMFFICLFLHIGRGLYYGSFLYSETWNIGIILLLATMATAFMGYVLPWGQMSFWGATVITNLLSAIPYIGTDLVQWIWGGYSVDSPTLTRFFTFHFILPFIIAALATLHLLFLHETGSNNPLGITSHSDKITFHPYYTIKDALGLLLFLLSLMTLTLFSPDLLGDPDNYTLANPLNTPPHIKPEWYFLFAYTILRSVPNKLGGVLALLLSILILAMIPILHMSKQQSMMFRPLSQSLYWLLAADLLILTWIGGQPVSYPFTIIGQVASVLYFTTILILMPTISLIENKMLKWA
UniProt P49711: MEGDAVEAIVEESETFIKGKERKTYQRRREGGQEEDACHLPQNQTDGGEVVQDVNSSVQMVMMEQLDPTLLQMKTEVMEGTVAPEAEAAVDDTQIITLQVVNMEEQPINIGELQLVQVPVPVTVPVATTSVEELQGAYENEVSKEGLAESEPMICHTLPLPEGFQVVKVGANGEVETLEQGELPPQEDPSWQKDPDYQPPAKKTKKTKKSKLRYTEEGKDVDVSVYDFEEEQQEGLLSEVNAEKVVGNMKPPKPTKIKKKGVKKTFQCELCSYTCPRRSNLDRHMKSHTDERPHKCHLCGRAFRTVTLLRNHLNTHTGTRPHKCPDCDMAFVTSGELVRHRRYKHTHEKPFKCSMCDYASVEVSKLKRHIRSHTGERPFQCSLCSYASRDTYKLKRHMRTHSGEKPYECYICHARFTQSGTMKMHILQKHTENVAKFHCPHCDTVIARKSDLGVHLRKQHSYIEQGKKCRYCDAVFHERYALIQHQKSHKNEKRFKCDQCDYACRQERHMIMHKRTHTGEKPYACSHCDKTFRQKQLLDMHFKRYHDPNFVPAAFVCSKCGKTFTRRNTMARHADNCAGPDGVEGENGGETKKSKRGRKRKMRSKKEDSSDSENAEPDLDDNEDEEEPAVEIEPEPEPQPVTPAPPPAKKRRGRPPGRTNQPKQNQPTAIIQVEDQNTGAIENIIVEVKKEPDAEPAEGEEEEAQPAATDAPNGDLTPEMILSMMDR
UniProt P08311: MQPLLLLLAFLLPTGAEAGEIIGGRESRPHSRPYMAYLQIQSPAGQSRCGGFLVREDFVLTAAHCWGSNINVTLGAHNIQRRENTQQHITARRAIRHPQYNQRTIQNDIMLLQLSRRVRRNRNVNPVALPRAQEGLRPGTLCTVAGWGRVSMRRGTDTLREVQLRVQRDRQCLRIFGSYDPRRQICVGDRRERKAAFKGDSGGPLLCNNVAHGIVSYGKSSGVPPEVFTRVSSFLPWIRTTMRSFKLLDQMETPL
UniProt Q9NRF8: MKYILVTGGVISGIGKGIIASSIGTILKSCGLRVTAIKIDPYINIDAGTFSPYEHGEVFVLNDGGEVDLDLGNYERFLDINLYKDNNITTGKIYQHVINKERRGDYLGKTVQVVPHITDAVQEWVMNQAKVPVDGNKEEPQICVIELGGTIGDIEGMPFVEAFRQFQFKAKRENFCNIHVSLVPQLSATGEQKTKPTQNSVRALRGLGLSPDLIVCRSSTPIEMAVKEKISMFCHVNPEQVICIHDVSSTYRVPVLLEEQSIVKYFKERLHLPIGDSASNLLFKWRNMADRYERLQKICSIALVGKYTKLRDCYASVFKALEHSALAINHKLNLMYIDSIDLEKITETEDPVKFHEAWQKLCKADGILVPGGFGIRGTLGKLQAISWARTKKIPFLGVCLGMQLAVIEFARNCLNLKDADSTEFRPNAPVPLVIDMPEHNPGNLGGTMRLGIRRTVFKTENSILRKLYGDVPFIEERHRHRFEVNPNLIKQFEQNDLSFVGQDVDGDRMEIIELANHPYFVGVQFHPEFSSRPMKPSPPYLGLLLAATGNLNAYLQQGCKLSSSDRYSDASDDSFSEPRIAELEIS
UniProt Q53TN4: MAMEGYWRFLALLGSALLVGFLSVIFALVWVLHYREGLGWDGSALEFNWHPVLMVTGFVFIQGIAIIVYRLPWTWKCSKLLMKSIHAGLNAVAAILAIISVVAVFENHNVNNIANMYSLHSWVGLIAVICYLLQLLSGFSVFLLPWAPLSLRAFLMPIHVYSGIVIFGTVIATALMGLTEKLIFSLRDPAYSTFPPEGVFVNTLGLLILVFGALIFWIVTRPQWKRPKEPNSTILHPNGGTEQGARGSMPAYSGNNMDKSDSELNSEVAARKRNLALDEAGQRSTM
UniProt P16220: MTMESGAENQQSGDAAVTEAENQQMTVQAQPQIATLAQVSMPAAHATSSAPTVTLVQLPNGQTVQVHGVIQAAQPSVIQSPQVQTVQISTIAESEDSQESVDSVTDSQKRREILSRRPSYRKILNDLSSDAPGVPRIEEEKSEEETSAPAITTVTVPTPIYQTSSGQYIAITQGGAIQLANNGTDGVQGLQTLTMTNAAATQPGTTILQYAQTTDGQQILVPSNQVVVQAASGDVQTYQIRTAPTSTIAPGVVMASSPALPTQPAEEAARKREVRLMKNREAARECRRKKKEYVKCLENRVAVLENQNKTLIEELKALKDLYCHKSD

Each target was assayed with COc1ccc(Cn2ccc3ccc(C(=O)NO)cc32)cc1 (assay: dose-dependent thermal stabilisation call (2D-TPP, DLPTP, 10% FDR) (binary (1 = stabilised)); higher = stabilised by the compound). Settings: system: HL-60 intact cells; concentration range 0.04-10 µM.

Target | dose-dependent thermal stabilisation call
CTDSP1 (UniProt Q9GZU7) | inactive: 0
CYFIP1 (UniProt Q7L576) | inactive: 0
CXORF15 (UniProt Q9NUQ3) | inactive: 0
CYP20A1 (UniProt Q6UW02) | inactive: 0
CYCS (UniProt P99999) | inactive: 0
DHRS1 (UniProt Q96LJ7) | active: 1
DEF6 (UniProt Q9H4E7) | inactive: 0
DCAKD (UniProt Q8WVC6) | inactive: 0
COTL1 (UniProt Q14019) | inactive: 0
DGAT1 (UniProt O75907) | inactive: 0
DENR (UniProt O43583) | inactive: 0
DARS (UniProt P14868) | inactive: 0
DDX39 (UniProt O00148) | inactive: 0
CUL1 (UniProt Q13616) | inactive: 0
DDB1 (UniProt Q16531) | inactive: 0
DDX52 (UniProt Q9Y2R4) | inactive: 0
CYP51A1 (UniProt Q16850) | active: 1
DGKA (UniProt P23743) | inactive: 0
CTAGE5 (UniProt Q96PC5) | inactive: 0

Looked up one by one from the list above, 2 records:
Target | dose-dependent thermal stabilisation call
COTL1 (UniProt Q14019) | inactive: 0
CXORF15 (UniProt Q9NUQ3) | inactive: 0

Next entries.

Target | dose-dependent thermal stabilisation call
CYTB (UniProt P00156) | inactive: 0
DDX20 (UniProt Q9UHI6) | inactive: 0
DDX23 (UniProt Q9BUQ8) | inactive: 0
CRIPT (UniProt Q9P021) | inactive: 0
CTCF (UniProt P49711) | inactive: 0
DCUN1D1 (UniProt Q96GG9) | inactive: 0
DGKE (UniProt P52429) | inactive: 0
COX6A1 (UniProt P12074) | active: 1
CTSG (UniProt P08311) | inactive: 0
CTPS2 (UniProt Q9NRF8) | inactive: 0
COPS6 (UniProt Q7L5N1) | inactive: 0
CYBRD1 (UniProt Q53TN4) | inactive: 0
CSGALNACT2 (UniProt Q8N6G5) | inactive: 0
DCTD (UniProt P32321) | inactive: 0
DAG1 (UniProt Q14118) | inactive: 0
CREB1 (UniProt P16220) | inactive: 0
DENND2C (UniProt Q68D51) | inactive: 0
CYB5A (UniProt P00167) | inactive: 0
